For at least one compound, name, drawing or mass did not settle the structure.
Tests used:
other enzymes = assay: Effect of vinylglyoxylate on other enzymes; type: biochemical; conditions: probably as a non-specific alkylating agent
lactate dehydrogenase = assay: Reactive α-keto and α-hydroxy acids as inhibitors of lactate dehydrogenase; type: biochemical
Procedure: Each of the enzymes was assayed by procedures in which change of absorbance at 340 nm due to NADH was followed essentially as described by Bergmeyer (1974, Methods of Enzymatic Analysis, 2nd Eng. Ed., Verlag Chemie Weinheim Academic Press, N.Y.) with the following exceptions. Phosphofructokinase was assayed according to the method of Lai et al (1984, J. Neurochem., 42:438-446). NAD^+ -linked isocitrate dehydrogenase was assayed as described by Lai and Clark (1976, Biochem. J., 154:423-432). Pyruvate and α-ketoglutarate dehydrogenase complexes were respectively assayed according to the methods of Lai and Sheu (1985, J. Neurochem., 45:1861-1868) and Lai and Cooper (1986) (J. Neurochem, 47:1376-1386).

**Q.** Which results are given for C=CC(=O)C(=O)O [Vinylglyoxylate, 2-oxo-3-butenoate]?
**A.** action on other enzymes (other enzymes): found to inhibit other enzymes; action on lactate dehydrogenase (lactate dehydrogenase): irreversible inhibitor

From patent publication US4950602A, “Inhibition of lactate production by pyruvate adducts” (Cornell Research Foundation, Inc., priority 1987, dated 1990)
